Laboratory results from PMC10293272.

The chains behind the UniProt entries cited, without tags or fusion partners. Where a name states a change or a piece, a line headed by the entry shows the natural chain unless it says otherwise.
UniProt O95831: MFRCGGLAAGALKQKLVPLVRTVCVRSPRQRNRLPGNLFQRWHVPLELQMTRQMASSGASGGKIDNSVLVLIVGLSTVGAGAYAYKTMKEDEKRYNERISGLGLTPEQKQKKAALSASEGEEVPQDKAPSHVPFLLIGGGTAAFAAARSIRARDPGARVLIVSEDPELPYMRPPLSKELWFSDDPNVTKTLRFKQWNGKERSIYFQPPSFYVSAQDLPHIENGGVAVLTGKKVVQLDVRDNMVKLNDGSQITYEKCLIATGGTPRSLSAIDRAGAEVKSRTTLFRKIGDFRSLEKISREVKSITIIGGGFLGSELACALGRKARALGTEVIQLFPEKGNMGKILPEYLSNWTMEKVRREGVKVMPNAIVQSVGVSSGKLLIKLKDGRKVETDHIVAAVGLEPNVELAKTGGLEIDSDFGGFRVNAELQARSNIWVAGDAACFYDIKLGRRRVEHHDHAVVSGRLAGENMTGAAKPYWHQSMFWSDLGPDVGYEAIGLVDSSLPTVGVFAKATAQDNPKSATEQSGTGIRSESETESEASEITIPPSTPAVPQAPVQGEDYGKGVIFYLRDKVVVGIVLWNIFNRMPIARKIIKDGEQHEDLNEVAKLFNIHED

Assays:
Assay in all cases: co-IP; exogenous Co-IP: Flag-tagged AIF co-expressed with an HA-tagged partner (AIF, CHCHD4 or MIF) in AIF-null cells; Flag beads overnight at 4 °C, washed three times, SDS-PAGE
[1] = biological target: Flag-tagged AIF p.423-435del variant (human) (UniProt O95831)
[2] = biological target: Flag-tagged AIF p.R422Q variant (human) (UniProt O95831)
[3] = biological target: Flag-tagged wild-type apoptosis-inducing factor (AIF) (human) (UniProt O95831)

Measured: binding

B1: HA-tagged coiled-coil-helix-coiled-coil-helix domain-containing protein 4 (CHCHD4) (protein, UniProt Q8N4Q1 1-142)
chain: MSYCRQEGKDRIIFVTKEDHETPSSAELVADDPNDPYEEHGLILPNGNINWNCPCLGGMASGPCGEQFKSAFSCFHYSTEEIKGSDCVDQFRAMQECMQKYPDLYPQEDEDEEEEREKKPAEQAEETAPIEATATKEEEGSS
binds: all assays above

These are yes or no findings as the source states them, for the method shown. In cells and extracts the contact can be indirect. A result given as binding can be weak or reduced; the word gives no strength. Sequences can lack the tags named with a protein.
